Test results: article PMC10190619
Results are given in words; binding and its absence hold for the method and conditions named. In cells and extracts the contact can be indirect. Here binding means that the protein was enriched with, or labelled near, the bait; the list need not be complete.

Amino acid sequences for entries named in this document (tags omitted).
UniProt Q96LA8: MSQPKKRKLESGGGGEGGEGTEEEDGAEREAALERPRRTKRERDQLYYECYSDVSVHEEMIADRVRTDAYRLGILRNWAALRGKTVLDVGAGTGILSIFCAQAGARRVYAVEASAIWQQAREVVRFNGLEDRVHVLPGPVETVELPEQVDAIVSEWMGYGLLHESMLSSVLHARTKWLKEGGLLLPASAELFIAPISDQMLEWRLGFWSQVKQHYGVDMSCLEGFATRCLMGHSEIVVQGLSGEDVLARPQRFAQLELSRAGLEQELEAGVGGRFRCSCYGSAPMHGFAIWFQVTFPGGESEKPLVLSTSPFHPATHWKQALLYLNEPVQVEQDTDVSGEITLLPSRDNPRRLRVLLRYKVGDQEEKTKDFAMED
UniProt P09874: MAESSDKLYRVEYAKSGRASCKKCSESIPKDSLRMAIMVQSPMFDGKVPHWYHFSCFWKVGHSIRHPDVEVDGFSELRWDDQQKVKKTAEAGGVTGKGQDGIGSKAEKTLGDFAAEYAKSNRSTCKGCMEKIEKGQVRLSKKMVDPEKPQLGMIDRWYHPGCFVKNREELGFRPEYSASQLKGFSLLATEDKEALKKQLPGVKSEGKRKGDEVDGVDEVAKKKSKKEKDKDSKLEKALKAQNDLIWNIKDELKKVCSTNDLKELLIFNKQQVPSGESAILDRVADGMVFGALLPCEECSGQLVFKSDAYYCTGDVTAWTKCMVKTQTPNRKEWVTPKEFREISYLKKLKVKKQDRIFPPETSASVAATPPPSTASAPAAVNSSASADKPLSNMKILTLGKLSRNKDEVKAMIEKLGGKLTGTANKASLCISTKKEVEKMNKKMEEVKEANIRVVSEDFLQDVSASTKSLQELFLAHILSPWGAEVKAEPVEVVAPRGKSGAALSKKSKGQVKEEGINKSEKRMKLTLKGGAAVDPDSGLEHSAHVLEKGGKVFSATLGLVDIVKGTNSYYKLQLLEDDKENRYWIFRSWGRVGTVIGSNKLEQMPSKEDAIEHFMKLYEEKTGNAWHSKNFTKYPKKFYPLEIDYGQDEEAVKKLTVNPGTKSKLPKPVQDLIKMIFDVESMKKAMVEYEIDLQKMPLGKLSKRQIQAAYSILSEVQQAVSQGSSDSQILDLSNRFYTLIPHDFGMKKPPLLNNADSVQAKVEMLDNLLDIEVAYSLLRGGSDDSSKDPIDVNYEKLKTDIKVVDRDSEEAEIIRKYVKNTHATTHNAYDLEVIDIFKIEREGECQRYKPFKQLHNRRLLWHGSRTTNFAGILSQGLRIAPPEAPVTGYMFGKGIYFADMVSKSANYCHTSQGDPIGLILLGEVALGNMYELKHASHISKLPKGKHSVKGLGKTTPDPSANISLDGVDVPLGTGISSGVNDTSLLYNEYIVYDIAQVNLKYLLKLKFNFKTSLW
UniProt Q92769: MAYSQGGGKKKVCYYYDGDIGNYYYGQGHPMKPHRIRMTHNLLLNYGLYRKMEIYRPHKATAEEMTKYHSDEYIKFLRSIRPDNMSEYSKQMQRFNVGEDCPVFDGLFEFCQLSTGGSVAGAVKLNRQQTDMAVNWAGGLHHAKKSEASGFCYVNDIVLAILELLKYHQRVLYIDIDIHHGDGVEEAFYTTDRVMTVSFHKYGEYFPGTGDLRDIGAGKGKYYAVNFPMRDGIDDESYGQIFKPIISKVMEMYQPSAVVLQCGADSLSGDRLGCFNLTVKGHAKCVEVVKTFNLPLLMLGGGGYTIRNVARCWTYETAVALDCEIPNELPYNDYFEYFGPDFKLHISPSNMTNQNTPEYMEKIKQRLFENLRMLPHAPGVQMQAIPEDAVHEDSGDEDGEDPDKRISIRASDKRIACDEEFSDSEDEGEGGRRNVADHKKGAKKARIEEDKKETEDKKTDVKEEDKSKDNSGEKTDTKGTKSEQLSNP
UniProt Q13547: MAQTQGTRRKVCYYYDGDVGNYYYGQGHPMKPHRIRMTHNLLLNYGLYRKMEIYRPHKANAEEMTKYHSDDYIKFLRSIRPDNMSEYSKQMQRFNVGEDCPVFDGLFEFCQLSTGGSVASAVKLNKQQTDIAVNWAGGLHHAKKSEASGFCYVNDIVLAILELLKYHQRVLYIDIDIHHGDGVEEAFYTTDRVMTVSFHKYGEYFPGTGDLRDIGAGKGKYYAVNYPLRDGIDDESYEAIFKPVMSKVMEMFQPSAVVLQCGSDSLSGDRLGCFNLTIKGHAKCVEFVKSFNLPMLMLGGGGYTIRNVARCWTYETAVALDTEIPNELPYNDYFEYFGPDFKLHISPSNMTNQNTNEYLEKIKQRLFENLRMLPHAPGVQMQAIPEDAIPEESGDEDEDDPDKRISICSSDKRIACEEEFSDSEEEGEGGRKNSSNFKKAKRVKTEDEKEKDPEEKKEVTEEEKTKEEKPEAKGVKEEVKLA

Experiments:
FLAG-PRMT6 = FLAG-PRMT6 (UniProt Q96LA8); assay: affinity purification with mass spectrometry; lysate of about 5 x 10^8 HEK293T cells stably expressing FLAG-PRMT6 or FLAG-PARP1 applied to a FLAG column; eluted fractions on SDS-PAGE, silver stained, LC-MS/MS
FLAG-PARP1 = FLAG-PARP1 (UniProt P09874); assay: as above

Substance | binding (FLAG-PRMT6) | binding (FLAG-PARP1)
HDAC2, endogenous (from UniProt Q92769 1-488) (enzyme) | binds | binds
protein arginine methyltransferase 6 (PRMT6), endogenous (from UniProt Q96LA8 1-375) (enzyme) | – | binds
poly(ADP-ribose) polymerase 1 (PARP1), endogenous (from UniProt P09874 1-1014) (enzyme) | binds | –
HDAC1, endogenous (from UniProt Q13547 1-482) (enzyme) | binds | binds
